From patent US6967237B2, “Ghrelin analogs” (priority 2000, dated 2005)
For part of these data: Not every detail of the peptide structures is certain; ends, links or a residue may be inferred. At least one compound was matched to its structure with a doubt left. Where a SMILES comes first, the peptide text is derived from it. The star is where a group is joined. Octanoyl = CCCCCCCC(=O)*

Chains of the proteins cited; added tags and fusions are not shown.
UniProt Q92847, whole entry: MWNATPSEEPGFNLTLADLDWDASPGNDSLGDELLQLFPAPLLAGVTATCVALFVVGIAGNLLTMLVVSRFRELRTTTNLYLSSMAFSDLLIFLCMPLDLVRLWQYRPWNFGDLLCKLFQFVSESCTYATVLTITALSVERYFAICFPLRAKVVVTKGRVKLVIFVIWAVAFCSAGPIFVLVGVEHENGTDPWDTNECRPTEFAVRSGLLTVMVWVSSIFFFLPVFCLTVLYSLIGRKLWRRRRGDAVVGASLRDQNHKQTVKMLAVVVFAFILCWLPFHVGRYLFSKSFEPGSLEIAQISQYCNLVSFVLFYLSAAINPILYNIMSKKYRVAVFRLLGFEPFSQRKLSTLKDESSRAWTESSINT

Tests used:
human GHSR1a = human GHSR1a (Homo sapiens, UniProt Q92847); test: Aequorin bioluminescence functional assay (intracellular calcium mobilization) in 293AEQ17/GHSR1a cells; format: cell-based; conditions: for EC50: aequorin bioluminescence, HEK-293 cells expressing hGHSR1a, three separate assays
human GHS receptor 1a = human GHS receptor 1a (Homo sapiens, UniProt Q92847); test: Competitive binding assay with [35S]-MK-677 on membranes of HEK 293-aequorin cells transfected with human GHS receptor; conditions: competition with 0.05 nM [35S]-MK-677; three separate assays in triplicate

Structure (SMILES) | hGHSR1a activation, result in words (human GHSR1a) | IC50 (human GHS receptor 1a) [nM] | EC50 (human GHSR1a) [nM]
CCCCCCCC(=O)NC[C@H](NC(=O)[C@H](CO)NC(=O)CN)C(=O)N[C@@H](Cc1ccccc1)C(=O)N[C@@H](CC(C)C)C(=O)N[C@@H](CO)C(=O)N1CCC[C@H]1C(=O)N[C@@H](CCC(=O)O)C(=O)N[C@@H](Cc1c[nH]cn1)C(=O)N[C@@H](CCC(N)=O)C(=O)N[C@@H](CCCNC(=N)N)C(=O)N[C@H](C(=O)N[C@@H](CCC(N)=O)C(=O)N[C@@H](CCC(N)=O)C(=O)N[C@@H](CCCNC(=N)N)C(=O)N[C@@H](CCCCN)C(=O)N[C@@H](CCC(=O)O)C(=O)N[C@@H](CO)C(=O)N[C@@H](CCCCN)C(=O)N[C@@H](CCCCN)C(=O)N1CCC[C@H]1C(=O)N1CCC[C@H]1C(=O)N[C@@H](C)C(=O)N[C@@H](CCCCN)C(=O)N[C@@H](CC(C)C)C(=O)N[C@@H](CCC(N)=O)C(=O)N1CCC[C@H]1C(=O)N[C@@H](CCCNC(=N)N)C(=O)O)C(C)C [Compound 12] | activated hGHSR1a as efficiently as the parent compounds | – | –
CCCCCCCC(=O)OC[C@H](NC(=O)[C@H](CO)NC(=O)CN)C(=O)N[C@@H](Cc1ccccc1)C(=O)N[C@@H](CC(C)C)C(=O)N[C@@H](CO)C(=O)N1CCC[C@H]1C(=O)N[C@@H](CCC(=O)O)C(=O)N[C@@H](Cc1c[nH]cn1)C(=O)N[C@@H](CCC(N)=O)C(=O)N[C@@H](CCCNC(=N)N)C(=O)N[C@H](C(=O)N[C@@H](CCC(N)=O)C(=O)N[C@@H](CCC(N)=O)C(N)=O)C(C)C [Compound 13, GSXFLSPEHQRVQQ] | – | 9.6 ± 1.5 | 17 ± 4
CCCCCCCC(=O)NC[C@H](NC(=O)[C@H](CO)NC(=O)CN)C(=O)N[C@@H](Cc1ccccc1)C(=O)N[C@@H](CC(C)C)C(=O)N[C@@H](CO)C(=O)N1CCC[C@H]1C(=O)N[C@@H](CCC(=O)O)C(=O)N[C@@H](Cc1c[nH]cn1)C(=O)N[C@@H](CCC(N)=O)C(=O)N[C@@H](CCCNC(=N)N)C(=O)N[C@H](C(=O)N[C@@H](CCC(N)=O)C(=O)N[C@@H](CCC(N)=O)C(=O)O)C(C)C [Compound 14] | activated hGHSR1a as efficiently as the parent compounds | – | 38 ± 1.8
CCCCCCCC(=O)OC[C@H](NC(=O)[C@H](CO)NC(C)=O)C(=O)N[C@@H](Cc1ccccc1)C(N)=O [Compound 26, Ac-SXF-NH2] (Ac-Ser-Ser(Octanoyl)-Phe-NH2) | – | – | > 10000
